Source: PubChem BioAssay AID2517 (National Center for Advancing Translational Sciences (NCATS), 2010)
Among all 350,000 compounds or so, about 1,200 (0.34%) were called active. This list was built around the results that the source calls inconclusive (neither active nor inactive); the mix of calls is not that of the screen. Calls follow the shape of the dose curve; as a rule, active = well fitted inhibition curve with a large enough effect; inconclusive = small, poorly fitted or top-dose-only effect; inactive = no such curve, though single readings can be large or run the other way. Potencies beside an inconclusive call are fits to weak or partial responses and may not hold up.

By UniProt entry, the sequences of proteins in these tests, tags left out.
UniProt P27695, whole entry, looked up: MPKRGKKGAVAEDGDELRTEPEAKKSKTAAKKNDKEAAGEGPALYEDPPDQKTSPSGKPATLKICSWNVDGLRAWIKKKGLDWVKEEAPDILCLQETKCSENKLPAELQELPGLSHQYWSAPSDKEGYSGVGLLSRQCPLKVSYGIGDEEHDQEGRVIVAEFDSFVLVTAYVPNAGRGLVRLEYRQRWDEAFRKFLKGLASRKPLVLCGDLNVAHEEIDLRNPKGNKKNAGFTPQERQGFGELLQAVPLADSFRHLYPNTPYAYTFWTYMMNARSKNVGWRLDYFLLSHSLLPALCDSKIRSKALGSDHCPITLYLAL

Target: DNA repair nuclease/redox regulator APEX1 (Homo sapiens) (UniProt P27695)
Experiment: qHTS Assay for Inhibitors of the Human Apurinic/apyrimidinic Endonuclease 1 (APE1); also: nearly all actives have a fitted effect of over 55% in size;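 as to activity change, negative = inhibition: plate controls were vehicle for no effect and reference inhibitor for full effect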
Settings: recombinant APE1, TAMRA/BHQ-2 abasic DNA cleavage fluorescence; activity change, negative = inhibition: at 65.8 µM (top of the series)
In short: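 Compound pre-exposure to 0.75 nM APE1, 15 min at ambient temperature. Reaction initiated with 50 nM TAMRA/BHQ-2 THF substrate, read immediately in kinetic mode, 525 nm excitation, 598 nm emission.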
Potency is read from the fitted curve at half-maximal effect.

SMILES	activity change, negative = inhibition	Potency
C=CCOC(=O)C(=O)/C=C/c1ccc2c(c1)Cc1ccccc1-2	inactive: -2.91%	–
O=C(O)c1ccc(NC(=S)NC(=O)c2ccc3ccccc3c2)cc1	–	inconclusive: 37.7 µM [inhibitor, single point]
CC1CCC2C(=O)N(c3cccc(OS(=O)(=O)c4ccccc4)c3)C(=O)C2C1 (stereo not drawn)	–	inconclusive: 44.7 µM [inhibitor, partial curve]
CCCCC1(C)OC(=O)C(=Cc2ccc(-c3ccc(Cl)c(C(=O)O)c3)o2)C(=O)O1 (stereo not drawn)	–	inconclusive: 39.8 µM [inhibitor, single point]
O=C1NCCCc2c1oc1ccc(O)cc21	inactive: 0.304%	–
COc1ccc(OC)c(-c2cc(C(=O)Nc3c(C)nn(Cc4ccccc4Cl)c3C)no2)c1	–	inconclusive: 44.7 µM [inhibitor, single point]
COc1ccccc1NC(=O)COC(=O)c1ccc([N+](=O)[O-])s1	–	inconclusive: 35.5 µM [inhibitor, single point]
CC(=O)OCC1O[C@@H](O[C@@H]2C[C@H]3C(C)(C)[C@H](OC(C)=O)CC[C@]3(C)[C@H]3CC[C@]45C[C@]4(CC[C@H]5[C@@H](C)C[C@@H](O)[C@H](O)C(C)(C)O)[C@@]32C)[C@H](O)[C@@H](O)[C@@H]1O (stereo partly drawn)	–	inconclusive: 2.24 µM [inhibitor, partial curve]
O=C(Nc1ccc(Br)cc1Br)c1cccc2c1C(=O)N(C1CCCCC1)C2	inactive: -11.8%	–
CC(C)(O)P(=O)(O)CCc1ccccc1	–	inconclusive: 7.08 µM [inhibitor, single point]
Cc1nn(-c2ccccc2)c(C)c1/C=C/C(=O)OCC(=O)NC1CCS(=O)(=O)C1 (stereo not drawn)	–	inconclusive: 25.1 µM [inhibitor, single point]
CN1CCN(c2ccc(Cl)cc2NC(=O)/C=C/c2cccc(F)c2)CC1	–	inconclusive: 3.16 µM [inhibitor, partial curve, poor fit]
CCCC1(c2ccccc2)NC(=O)N(CC(=O)Nc2sc(-c3ccccc3)cc2C(=O)OCC)C1=O (stereo not drawn)	–	inconclusive: 39.8 µM [inhibitor, single point]
Oc1ccccc1-c1nc(NCCN2CCOCC2)c2ccccc2n1	–	inconclusive: 39.8 µM [inhibitor, single point]
COc1nccnc1NS(=O)(=O)c1ccc(N/C=C2\CCCCC2=O)cc1	–	inconclusive: 44.7 µM [inhibitor, single point]
O=C(O)c1ccc(S(=O)(=O)N[C@H](Cc2ccc(O)cc2)C(=O)O)cc1	–	inconclusive: 39.8 µM [inhibitor, single point]
COc1ccc(OC)c(Nc2nc(-c3cccs3)cs2)c1	–	inconclusive: 6.31 µM [inhibitor, partial curve]
Cc1cc(NS(=O)(=O)c2ccc(NC(=O)CCSc3ccc(F)cc3)cc2)nc(C)n1	–	inconclusive: 3.98 µM [inhibitor, single point]
O=C(CCn1cccc1)NCc1ccc2c(c1)OCO2	–	inconclusive: 39.8 µM [inhibitor, single point]
C[C@@H]1NC(=O)[C@H](CCC(N)=O)NC(=O)c2cc([N+](=O)[O-])cc(I)c2NCC[C@@H](C(N)=O)NC1=O	–	inconclusive: 39.8 µM [inhibitor, single point]
Cc1cccc(Nc2ccc3nonc3c2[N+](=O)[O-])c1C	inactive: 19.7%	–

SMILES	activity change, negative = inhibition	Potency
O=C(/C=C/c1cccs1)c1cc(Cl)ccc1O	–	inconclusive: 0.355 µM [inhibitor, full curve, poor fit]
COC(=O)N1CCN(/[N+]([O-])=N/Oc2ccc([N+](=O)[O-])cc2[N+](=O)[O-])CC1	inactive: 1.85%	–
CCCSc1nsc(NC(=O)C(c2ccccc2)c2ccccc2)n1	–	inconclusive: 44.7 µM [inhibitor, single point]
Cc1cc(C(=O)CSc2nncs2)c(C)n1Cc1ccco1	–	inconclusive: 35.5 µM [inhibitor, single point]
COC(=O)c1cc2sccc2n1Cc1nc(-c2ccc(OC)cc2)oc1C	inactive: 18.1%	–
CCCCn1c(C)cc2c(c1=O)C1O[C@](c3ccsc3)(Cc3cc(OC)c(OC)cc31)O2	–	active: 3.86 µM
C/C(=C/CCC(C)[C@H]1CC[C@@]2(C)C3=C(CC[C@]12C)[C@@]1(C)CCC(=O)C(C)(C)[C@@H]1CC3)C(=O)O (stereo partly drawn)	inactive: 3.91%	–
COc1cccc2c1C(=O)c1c(O)c3c(c(O)c1C2=O)C[C@](O)(C(=O)CO)C[C@H]3O[C@@H]1C[C@H](N)[C@H](O)[C@H](C)O1	–	active: 11.2 µM
COc1cccc(OC)c1C(=O)Nc1ccc2c(c1)Cc1ccccc1-2	–	inconclusive: 6.31 µM [inhibitor, single point]
CC12CC3(C)CC(C)(C1)CC(C(=O)NCc1ccccn1)(C2)C3	–	inconclusive: 4.47 µM [inhibitor, partial curve, poor fit]
CC(C)c1cc(C(=O)NCc2ccco2)no1	–	inconclusive: 3.55 µM [inhibitor, single point]
CCOC(=O)Cn1c(=NC(=O)C2COc3ccccc3O2)sc2cc(S(N)(=O)=O)ccc21 (stereo not drawn)	–	inconclusive: 35.5 µM [inhibitor, single point]
CCc1ccc(OCC(=O)NNC(=O)c2ccc(NC(=O)C3CC3)cc2)cc1	–	inconclusive: 26.7 µM [inhibitor, partial curve]
Cc1[nH][nH]c(=O)c1C(c1ccc(-c2ccc(C(=O)O)cc2)o1)c1c(C)[nH][nH]c1=O	–	inconclusive: 10 µM [inhibitor, single point]
O=[N+]([O-])c1cc(Cl)cc2c1nc(NCCO)c1ccccc12	–	inconclusive: 8.91 µM [inhibitor, single point]
COc1cc(/C=C2\CCc3c2nc2ccccc2c3C(=O)O)cc(OC)c1OC	–	active: 25.1 µM
Cc1c(CNCCC2=CCCCC2)c(C(=O)O)c(C)n1Cc1ccccc1	–	inconclusive: 39.8 µM [inhibitor, single point]
O=C(O)c1ccc(COc2ccccc2/C=C2\NC(=O)N(Cc3ccccc3)C2=O)cc1	–	inconclusive: 39.8 µM [inhibitor, single point]
COc1ccccc1COC(=O)N/C=C/c1ccco1	–	inconclusive: 22.4 µM [inhibitor, single point]
CCc1ccc[n+](-c2[nH]c(=O)sc2/C=N/N=C(\[O-])c2cccnc2)c1	inactive: 32.6%	–
COc1ccc(CCC(=O)N2CCN(c3ccccc3)CC2)cc1OC	inactive: 57.4%	–

Record cards, as listed above. Order of values: activity change, negative = inhibition	Potency
CC(C)c1cc(C(=O)NCc2ccco2)no1 is entered as –	inconclusive: 3.55 µM [inhibitor, single point]
C[C@@H]1NC(=O)[C@H](CCC(N)=O)NC(=O)c2cc([N+](=O)[O-])cc(I)c2NCC[C@@H](C(N)=O)NC1=O is entered as –	inconclusive: 39.8 µM [inhibitor, single point]

Next part

SMILES	activity change, negative = inhibition	Potency
Cc1ccc(S(=O)(=O)Oc2ccccc2/C=N/N=C(N)N)cc1	–	inconclusive: 2.82 µM [inhibitor, single point]
CCN1C(=O)[C@H]2[C@H]3[C@H](O)[C@H](O)C/C(=N/OC[C@@H](O)COCc4ccco4)[C@H]3CC[C@@H]2C1=O	–	inconclusive: 3.16 µM [inhibitor, single point]
Cc1ccc(S(=O)(=O)N[C@H](C(=O)OCC(=O)NC(=O)NCc2ccco2)C(C)C)cc1	inactive: -34.6%	–
O=C(CSc1nnc(-c2ccncc2)o1)N1CCc2ccccc2C1	–	inconclusive: 25.1 µM [inhibitor, single point]
CCOC(=O)C1=C(C)Nc2ccccc2N=C1NC(=O)c1ccc(Cl)c(S(=O)(=O)N2CCCC2)c1	–	inconclusive: 14.1 µM [inhibitor, partial curve]
Cc1ccc(NC(=O)c2cc(S(=O)(=O)NCCc3ccccc3)ccc2F)cc1Cl	inactive: -5.09%	–
Cc1cc(O)cc(O)c1C(=O)OC1(C)C(=O)C=C2C=C(/C=C/CO)OC=C2C1=O (stereo not drawn)	–	inconclusive: 28.2 µM [inhibitor, single point]
O=[N+]([O-])c1cccc(S(=O)(=O)N2CCN(S(=O)(=O)N3CCOCC3)CC2)c1	–	inconclusive: 29.9 µM [inhibitor, single point]
Cc1cc(-c2ccccc2C(=O)O)on1	inactive: -3.27%	–
CCN(C(=O)c1coc(=O)c(Br)c1)c1ccc2c(c1)OCO2	–	inconclusive: 28.2 µM [inhibitor, single point]
Cn1c(CO)cnc1S(=O)(=O)Cc1ccc(Cl)cc1	inactive: 11.8%	–
CCc1nc2ccc(C(=O)N3CCN(c4cccc(C)c4C)CC3)cc2nc1CC	inactive: 62.2%	–
O=C(O)CSc1nnc(CNc2ccc(F)cc2)n1-c1ccccc1	–	inconclusive: 44.7 µM [inhibitor, single point]
O=C(CN(Cc1ccccc1)S(=O)(=O)c1ccccc1)N/N=C/c1ccc2c(c1)OCO2	–	inconclusive: 11.2 µM [inhibitor, partial curve, poor fit]
COC(=O)CCC(=O)OC1(C)C(=O)C2=COC(c3ccc(OC)cc3)=CC2=C(Br)C1=O (stereo not drawn)	–	inconclusive: 28.2 µM [inhibitor, partial curve]
COc1cc(/C=C2\C(=O)N(CCC#N)N=C2C)c(Br)cc1OC(C)C	–	inconclusive: 0.0126 µM [inhibitor, full curve, poor fit]
CC(CCc1ccccc1)NC(=O)c1ccc(Cl)nc1 (stereo not drawn)	–	inconclusive: 44.7 µM [inhibitor, partial curve, poor fit]
Cc1nnc(NC(=O)C2CCN(S(=O)(=O)c3cc([N+](=O)[O-])ccc3Cl)CC2)o1	inactive: -6.82%	–
O=S(=O)(Nc1ccc2nc(-c3ccco3)[nH]c2c1)c1ccccc1	–	inconclusive: 11.2 µM [inhibitor, partial curve]
Cc1ccc(S(=O)(=O)c2cc(OC(=O)c3ccco3)ccc2OC(=O)c2ccco2)cc1	–	inconclusive: 22.4 µM [inhibitor, single point]
Cc1ncc(S(=O)(=O)c2ccccc2)c(-c2ccccc2Cl)n1	–	inconclusive: 3.16 µM [inhibitor, partial curve]

Part of the list above, as comma-separated lines.
SMILES,"activity change, negative = inhibition",Potency
O=C(/C=C/c1cccs1)c1cc(Cl)ccc1O,–,"inconclusive: 0.355 µM [inhibitor, full curve, poor fit]"
COC(=O)N1CCN(/[N+]([O-])=N/Oc2ccc([N+](=O)[O-])cc2[N+](=O)[O-])CC1,inactive: 1.85%,–
CCOC(=O)C1=C(C)Nc2ccccc2N=C1NC(=O)c1ccc(Cl)c(S(=O)(=O)N2CCCC2)c1,–,"inconclusive: 14.1 µM [inhibitor, partial curve]"
